Results deposited as PubChem BioAssay AID1259405 (NCATS, 2018)
This is an unselected part of about 50,000 reagents tested. Of all reagents, about 4,000 (8%) got an active call. 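Mouse siRNA library applied to hamster cells; one well for each siRNA.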 Unmarked entries are inactive. The numbers tell different reagents against one gene apart. Reagent sequences are not shown.

Test: 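Knock-downs that lift recombinant protein yield in hamster ovary cells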 (primary screen)
System: Chinese hamster CHO-K1 ovary cells with stable secreted eGFP expression
Reagents: single siRNA against mouse genes, 0.8 pmol siRNA per well (2 µl of 400 nM stock)
Duration: 3 days
Measured: 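Percent of the per-plate non-targeting control median for intracellular GFP per well by laser scanning cytometry and for cell viability by ATP luminescence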
Reading the numbers: GFP, % of control: higher = more GFP per well, higher productivity; viability (ATP), % of control: higher = more viable cells (more ATP)
Call rule: 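a knock-down is called active if GFP reaches 120% or more of non-targeting control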

no.	target gene	siRNA no.	GFP, % of control	viability (ATP), % of control
1	Ptgr3	1	79.4	85.1
2	Ptgr3	2	64.8	50.4
3	Ptgr3	3	57.7	63.2
4	Or5k16	1	92.8	74.7
5	Or5k16	2	72.3	48.3
6	Or5k16	3	50.4	88.9
7	Zbtb35	1	56.9	65.1
8	Zbtb35	2	86.8	78.5
9	Zbtb35	3	68.9	75.7
10	Or10al4	1	62	24.8
11	Or10al4	2	151 (active)	71.2
12	Or10al4	3	57.3	38
13	Nlrp4f	1	114	127
14	Nlrp4f	2	68.6	73.5
15	Nlrp4f	3	84.9	120
16	Slc10a4	1	57.9	55.7
17	Slc10a4	2	157 (active)	71.7
18	Slc10a4	3	63.5	64.6
19	Pds5a	1	78	55.5
20	Pds5a	2	91.1	74.4
21	Pds5a	3	90.5	89.5
22	Daam1	1	102	76.2
23	Daam1	2	72.1	73.1
24	Daam1	3	75.7	77
25	Frmd4a	1	65.5	59.9
26	Frmd4a	2	75.8	76.3
27	Frmd4a	3	59.4	51.2
28	Hbb-b1	1	63.8	50.4
29	Hbb-b1	2	126 (active)	96
30	Hbb-b1	3	93	64.4
31	Tcim	1	65.9	87.2
32	Tcim	2	55.4	46.3
33	Tcim	3	65.4	83
34	Cd300lb	1	68.5	39.7
35	Cd300lb	2	46.4	64.8
36	Cd300lb	3	57.3	58.5
37	Hykk	1	84.9	80.4
38	Hykk	2	84.8	62.5
39	Hykk	3	94.6	121
40	Plpp7	1	127 (active)	61.2
41	Plpp7	2	58.9	90.5
42	Plpp7	3	50.3	58.6
43	Zxda	1	56.9	65.4
44	Zxda	2	61.1	91.1
45	Zxda	3	42.3	53.1
46	Hps4	1	49.1	63.8
47	Hps4	2	93.5	50
48	Hps4	3	101	98.9
49	Rnf220	1	47.5	61.4
50	Rnf220	2	91.1	60.4
51	Rnf220	3	79.9	85.1
52	Ckap4	1	95.5	90.9
53	Ckap4	2	98.9	66.1
54	Ckap4	3	93.3	99.6
55	S100pbp	1	100	90.4
56	S100pbp	2	83.5	37.3
57	S100pbp	3	93.3	78.2

Not a retest: an excerpt of the list.
no.	target gene	siRNA no.	GFP, % of control	viability (ATP), % of control
3	Ptgr3	3	57.7	63.2
4	Or5k16	1	92.8	74.7
5	Or5k16	2	72.3	48.3
6	Or5k16	3	50.4	88.9
7	Zbtb35	1	56.9	65.1
8	Zbtb35	2	86.8	78.5
9	Zbtb35	3	68.9	75.7
